Assay results reported in paper PMC6439305 (iScience, 2019).

Chains of the proteins cited; added tags and fusions are not shown.
UniProt P42866, whole entry: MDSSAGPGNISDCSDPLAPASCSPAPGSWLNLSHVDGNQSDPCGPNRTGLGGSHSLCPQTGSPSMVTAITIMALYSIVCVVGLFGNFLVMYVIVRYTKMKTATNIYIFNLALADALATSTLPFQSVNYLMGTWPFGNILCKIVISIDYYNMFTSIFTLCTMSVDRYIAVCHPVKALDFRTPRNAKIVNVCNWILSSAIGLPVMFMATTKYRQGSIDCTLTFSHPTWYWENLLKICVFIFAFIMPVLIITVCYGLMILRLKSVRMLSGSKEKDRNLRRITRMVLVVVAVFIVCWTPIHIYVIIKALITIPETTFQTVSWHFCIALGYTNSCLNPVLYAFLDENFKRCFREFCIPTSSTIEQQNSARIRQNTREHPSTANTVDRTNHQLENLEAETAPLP

Target: MOR-Venus (mu opioid receptor fused to Venus-YFP) (Mus musculus, UniProt P42866)
Test: Galphai2/Ggamma2 BRET2 dissociation assay, HEK293
Format: cell-based
Conditions: agonist, 10 min stimulation

Row | Structure (SMILES) | EC50
1 | CO[C@]12CC[C@@]3(C[C@@H]1[C@](C)(O)C(C)(C)C)[C@H]1Cc4ccc(O)c5c4[C@@]3(CCN1CC1CC1)[C@H]2O5 [buprenorphine] | for buprenorphine, which had significantly lower efficacy and potency than Met-Enk
2 | CN1CC[C@]23c4c5ccc(O)c4O[C@H]2[C@@H](O)C=C[C@H]3[C@H]1C5 [morphine] | Morphine in HEK293 cells showed efficient Gαi signaling
